Some peptides are written in HELM: one residue between dots, names in brackets for other building blocks, links after the first $.

Data on one substance can be found in patent US6228373A (priority 1995, dated 2001).

The series can be described thus: general procedure: peptide synthesis; Tentagel S trt-Pro-Fmoc (Rapp Polymer), 0.18 mmol/g; Fmoc-amino acid pentafluorophenyl esters with HOBT. The note with it: whole synthesis, scale 0.20 mmol.

PEPTIDE1{G.P.C.C.P.G}$$$$V2.0 yielded an isolated mass of 84 mg.
